Our source for the binding values is article PMC11253546, “Fidelity in plant hormone modifications catalyzed by Arabidopsis GH3 acyl acid amido synthetases” (The Journal of Biological Chemistry, 2024).

Results are given in words; binding and its absence hold for the method and conditions named.

What all share (assay): SEC; Superdex-75 26/60 HiLoad column, 50 mM Tris (pH 8.0), 100 mM NaCl; elution after Ni-NTA; both purified
(Size exclusion chromatography separates by hydrodynamic size, large species first.)

Assay [1] has as its target AtGH3.5/WES1 (Arabidopsis thaliana) (UniProt O81829).
Assay [2] deals with AtGH3.2/YDK2 (Arabidopsis thaliana) (UniProt Q9SZT9).
The target in assay [3] is GH3-N5/C2 chimera (N-terminal domain of AtGH3.5/WES1 and C-terminal domain of AtGH3.2/YDK2) (Arabidopsis thaliana) (UniProt O81829+Q9SZT9).
Assay [4] deals with GH3-N2/C5 chimera (N-terminal domain of AtGH3.2/YDK2 and C-terminal domain of AtGH3.5/WES1) (Arabidopsis thaliana) (UniProt Q9SZT9+O81829).

B1: AtGH3.5/WES1 (enzyme, UniProt O81829 1-612)
chain: MPEAPKKESLEVFDLTLDQKNKQKLQLIEELTSNADQVQRQVLEEILTRNADVEYLRRHDLNGRTDRETFKNIMPVITYEDIEPEINRIANGDKSPILSSKPISEFLTSSGTSGGERKLMPTIEEELDRRSLLYSLLMPVMSQFVPGLENGKGMYFLFIKSESKTPGGLPARPVLTSYYKSSHFKERPYDPYTNYTSPNETILCSDSYQSMYSQMLCGLCQHQEVLRVGAVFASGFIRAIKFLEKHWIELVRDIRTGTLSSLITDPSVREAVAKILKPSPKLADFVEFECKKSSWQGIITRLWPNTKYVDVIVTGTMSQYIPTLDYYSNGLPLVCTMYASSECYFGVNLRPLCKPSEVSYTLIPSMAYFEFLPVHRNNGVTNSINLPKALTEKEQQELVDLVDVKLGQEYELVVTTYAGLCRYRVGDLLRVTGFKNKAPQFSFICRKNVVLSIDSDKTDEVELQNAVKNAVTHLVPFDASLSEYTSYADTSSIPGHYVLFWELCLDGNTPIPPSVFEDCCLAVEESFNTVYRQGRVSDKSIGPLEIKIVEPGTFDKLMDYAISLGASINQYKTPRCVKFAPIIELLNSRVVDSYFSPKCPKWVPGHKQWGSN
On to B1, for which the binding result in assay [1] was “no binding”.

B2: AtGH3.2/YDK2 (enzyme, UniProt Q9SZT9 1-549)
chain: MAVDSPLQSRMVSATTSEKDVKALKFIEEMTRNPDSVQEKVLGEILTRNSNTEYLKRFDLDGVVDRKTFKSKVPVVTYEDLKPEIQRISNGDCSPILSSHPITEFLTSSGTSAGERKLMPTIEEDLDRRQLLYSLLMPVMNLYVPGLDKGKGLYFLFVKSESKTSGGLPARPVLTSYYKSDHFKRRPYDPYNVYTSPNEAILCSDSSQSMYAQMLCGLLMRHEVLRLGAVFASGLLRAISFLQNNWKELARDISTGTLSSRIFDPAIKNRMSKILTKPDQELAEFLVGVCSQENWEGIITKIWPNTKYLDVIVTGAMAQYIPTLEYYSGGLPMACTMYASSESYFGINLKPMCKPSEVSYTIMPNMAYFEFLPHNHDGDGAAEASLDETSLVELANVEVGKEYELVITTYAGLYRYRVGDILRVTGFHNSAPQFKFIRRKNVLLSVESDKTDEAELQKAVENASRLFAEQGTRVIEYTSYAETKTIPGHYVIYWELLGRDQSNALMSEEVMAKCCLEMEESLNSVYRQSRVADKSIGPLGDTCGTERYV
As to B2, the binding result in assay [2] is listed as “no binding”.

B3: GH3-N5/C2 chimera (N-terminal domain of AtGH3.5/WES1 and C-terminal domain of AtGH3.2/YDK2) (enzyme, UniProt O81829 1-449; Q9SZT9 443-549)
chain: MPEAPKKESLEVFDLTLDQKNKQKLQLIEELTSNADQVQRQVLEEILTRNADVEYLRRHDLNGRTDRETFKNIMPVITYEDIEPEINRIANGDKSPILSSKPISEFLTSSGTSGGERKLMPTIEEELDRRSLLYSLLMPVMSQFVPGLENGKGMYFLFIKSESKTPGGLPARPVLTSYYKSSHFKERPYDPYTNYTSPNETILCSDSYQSMYSQMLCGLCQHQEVLRVGAVFASGFIRAIKFLEKHWIELVRDIRTGTLSSLITDPSVREAVAKILKPSPKLADFVEFECKKSSWQGIITRLWPNTKYVDVIVTGTMSQYIPTLDYYSNGLPLVCTMYASSECYFGVNLRPLCKPSEVSYTLIPSMAYFEFLPVHRNNGVTNSINLPKALTEKEQQELVDLVDVKLGQEYELVVTTYAGLCRYRVGDLLRVTGFKNKAPQFSFICRKNVLLSVESDKTDEAELQKAVENASRLFAEQGTRVIEYTSYAETKTIPGHYVIYWELLGRDQSNALMSEEVMAKCCLEMEESLNSVYRQSRVADKSIGPLGDTCGTERYV
For the molecule B3, the binding result in assay [3] was “no binding”.

B4: GH3-N2/C5 chimera (N-terminal domain of AtGH3.2/YDK2 and C-terminal domain of AtGH3.5/WES1) (enzyme, UniProt Q9SZT9 1-442; O81829 450-608)
chain: MAVDSPLQSRMVSATTSEKDVKALKFIEEMTRNPDSVQEKVLGEILTRNSNTEYLKRFDLDGVVDRKTFKSKVPVVTYEDLKPEIQRISNGDCSPILSSHPITEFLTSSGTSAGERKLMPTIEEDLDRRQLLYSLLMPVMNLYVPGLDKGKGLYFLFVKSESKTSGGLPARPVLTSYYKSDHFKRRPYDPYNVYTSPNEAILCSDSSQSMYAQMLCGLLMRHEVLRLGAVFASGLLRAISFLQNNWKELARDISTGTLSSRIFDPAIKNRMSKILTKPDQELAEFLVGVCSQENWEGIITKIWPNTKYLDVIVTGAMAQYIPTLEYYSGGLPMACTMYASSESYFGINLKPMCKPSEVSYTIMPNMAYFEFLPHNHDGDGAAEASLDETSLVELANVEVGKEYELVITTYAGLYRYRVGDILRVTGFHNSAPQFKFIRRKNVVLSIDSDKTDEVELQNAVKNAVTHLVPFDASLSEYTSYADTSSIPGHYVLFWELCLDGNTPIPPSVFEDCCLAVEESFNTVYRQGRVSDKSIGPLEIKIVEPGTFDKLMDYAISLGASINQYKTPRCVKFAPIIELLNSRVVDSYFSPKCPKWVPGHKQ
As for B4, the binding entry in assay [4] is on record as “no binding”.
